Assay results from PMC9657364.

The chains behind the UniProt entries cited, without tags or fusion partners.
UniProt Q14258: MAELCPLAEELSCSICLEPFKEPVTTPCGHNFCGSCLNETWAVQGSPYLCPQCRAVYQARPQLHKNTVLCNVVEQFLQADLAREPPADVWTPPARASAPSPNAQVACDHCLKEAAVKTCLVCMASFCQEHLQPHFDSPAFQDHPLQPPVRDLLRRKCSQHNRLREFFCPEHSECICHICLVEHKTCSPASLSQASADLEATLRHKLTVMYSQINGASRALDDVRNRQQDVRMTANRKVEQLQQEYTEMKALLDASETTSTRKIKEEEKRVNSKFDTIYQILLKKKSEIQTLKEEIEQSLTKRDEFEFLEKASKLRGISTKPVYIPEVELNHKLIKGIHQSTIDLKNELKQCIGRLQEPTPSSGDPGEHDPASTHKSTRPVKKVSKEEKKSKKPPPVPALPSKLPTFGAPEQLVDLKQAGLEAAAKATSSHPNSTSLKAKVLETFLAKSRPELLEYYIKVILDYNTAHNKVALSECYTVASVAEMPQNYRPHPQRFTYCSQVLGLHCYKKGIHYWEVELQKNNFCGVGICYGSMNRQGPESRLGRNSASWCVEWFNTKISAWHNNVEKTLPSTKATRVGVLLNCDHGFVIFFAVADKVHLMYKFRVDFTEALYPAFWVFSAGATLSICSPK

Target: T1, Receptor interacting protein serine/threonine kinase 4 (RIPK4) (human (endogenous in BGC-823 and AGS)) (UniProt P57078)
T1 sequence: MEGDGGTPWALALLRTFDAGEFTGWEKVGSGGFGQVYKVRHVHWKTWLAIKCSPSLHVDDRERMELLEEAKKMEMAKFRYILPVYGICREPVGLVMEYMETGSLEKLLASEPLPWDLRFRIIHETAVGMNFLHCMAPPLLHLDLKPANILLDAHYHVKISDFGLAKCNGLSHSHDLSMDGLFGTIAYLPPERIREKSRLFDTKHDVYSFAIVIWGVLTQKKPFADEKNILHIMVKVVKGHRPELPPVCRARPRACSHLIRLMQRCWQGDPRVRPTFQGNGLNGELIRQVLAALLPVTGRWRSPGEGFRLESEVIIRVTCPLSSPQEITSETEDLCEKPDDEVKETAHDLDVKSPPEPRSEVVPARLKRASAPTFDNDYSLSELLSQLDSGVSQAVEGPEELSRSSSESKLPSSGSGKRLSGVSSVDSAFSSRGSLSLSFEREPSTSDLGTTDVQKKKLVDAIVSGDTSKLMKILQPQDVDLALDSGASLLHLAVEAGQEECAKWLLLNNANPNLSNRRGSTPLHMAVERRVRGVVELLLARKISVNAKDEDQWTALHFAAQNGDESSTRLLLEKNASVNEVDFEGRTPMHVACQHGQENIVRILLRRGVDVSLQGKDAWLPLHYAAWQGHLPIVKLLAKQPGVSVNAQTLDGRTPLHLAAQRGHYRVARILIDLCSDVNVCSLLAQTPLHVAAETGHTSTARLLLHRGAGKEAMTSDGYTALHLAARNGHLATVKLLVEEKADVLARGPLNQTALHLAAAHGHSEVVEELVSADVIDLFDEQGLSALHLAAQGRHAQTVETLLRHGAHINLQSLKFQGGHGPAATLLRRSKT
Assay: affinity purification with mass spectrometry; RIPK4 antibody used to precipitate endogenous RIPK4 from control (NC) and si-LINC01537 AGS and BGC-823 cells; silver staining, mass spectrometry, Western blot of the candidate E3 enzyme

For TRIM25 (from UniProt Q14258 1-630), the binding was “binds”.

These are yes or no findings as the source states them, for the method shown. In cells and extracts the contact can be indirect. These calls come from enrichment with a bait or labelling near it, and not all partners need be listed.
